No constants are given. Whether binding was seen depends on the method and setting. Some binding calls cover weakened binding; strength is not graded here. Where a sequence is shown, tags or fusion partners need not be part of it.
Molecular target: T1, USP1 (G670A + G671A, N-terminal his-tag) (human) (UniProt O94782)
T1 sequence: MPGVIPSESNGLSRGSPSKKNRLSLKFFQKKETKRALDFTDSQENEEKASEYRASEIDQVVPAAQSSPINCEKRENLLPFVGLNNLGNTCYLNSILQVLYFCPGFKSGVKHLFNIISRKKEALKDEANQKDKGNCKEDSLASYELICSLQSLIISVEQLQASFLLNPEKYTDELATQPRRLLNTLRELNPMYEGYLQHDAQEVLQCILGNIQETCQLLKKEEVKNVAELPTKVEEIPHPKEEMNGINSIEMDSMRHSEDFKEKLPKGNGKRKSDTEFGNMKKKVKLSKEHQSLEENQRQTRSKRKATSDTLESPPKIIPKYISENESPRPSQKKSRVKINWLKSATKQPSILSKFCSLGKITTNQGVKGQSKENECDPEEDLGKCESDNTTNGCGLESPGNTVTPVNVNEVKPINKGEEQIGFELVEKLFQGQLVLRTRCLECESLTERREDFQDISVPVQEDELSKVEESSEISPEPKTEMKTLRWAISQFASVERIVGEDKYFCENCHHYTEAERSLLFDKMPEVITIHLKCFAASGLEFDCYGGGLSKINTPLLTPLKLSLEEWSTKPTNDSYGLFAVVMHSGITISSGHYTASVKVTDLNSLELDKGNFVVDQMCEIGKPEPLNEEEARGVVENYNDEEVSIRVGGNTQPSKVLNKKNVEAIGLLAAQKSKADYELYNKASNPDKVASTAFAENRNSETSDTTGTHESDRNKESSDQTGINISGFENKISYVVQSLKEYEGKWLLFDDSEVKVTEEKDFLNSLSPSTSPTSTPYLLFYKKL
Assay: co-purification after co-expression

Amino acid sequences for entries named in this document (tags omitted).
UniProt Q8TAF3: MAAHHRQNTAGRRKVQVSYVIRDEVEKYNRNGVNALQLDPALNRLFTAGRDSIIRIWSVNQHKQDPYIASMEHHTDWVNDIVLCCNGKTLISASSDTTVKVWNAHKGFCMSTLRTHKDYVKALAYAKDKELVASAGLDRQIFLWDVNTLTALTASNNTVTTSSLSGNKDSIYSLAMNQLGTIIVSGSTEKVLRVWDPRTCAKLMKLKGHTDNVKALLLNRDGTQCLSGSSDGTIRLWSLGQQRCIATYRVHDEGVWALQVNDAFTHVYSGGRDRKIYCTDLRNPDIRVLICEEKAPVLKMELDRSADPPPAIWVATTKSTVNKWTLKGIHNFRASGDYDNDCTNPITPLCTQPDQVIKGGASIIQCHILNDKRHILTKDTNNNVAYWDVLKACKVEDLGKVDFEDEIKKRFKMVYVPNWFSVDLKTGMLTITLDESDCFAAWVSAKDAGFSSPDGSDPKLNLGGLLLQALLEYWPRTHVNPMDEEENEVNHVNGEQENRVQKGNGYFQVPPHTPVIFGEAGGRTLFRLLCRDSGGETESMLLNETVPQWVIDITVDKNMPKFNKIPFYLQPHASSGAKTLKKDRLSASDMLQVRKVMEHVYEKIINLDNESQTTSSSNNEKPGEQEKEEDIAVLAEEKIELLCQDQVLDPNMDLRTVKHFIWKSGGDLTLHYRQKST

Substance: UAF1 (N-terminal strep-tag) (from UniProt Q8TAF3 1-677)
- binding: binds

Reference: publication doi:10.1101/2023.07.24.550302
